The values that follow come from publication PMC4383634.

Chains of the proteins cited; added tags and fusions are not shown. Lines headed by an entry give the natural chain unless they say otherwise; changes in a name come on top.
UniProt P12254: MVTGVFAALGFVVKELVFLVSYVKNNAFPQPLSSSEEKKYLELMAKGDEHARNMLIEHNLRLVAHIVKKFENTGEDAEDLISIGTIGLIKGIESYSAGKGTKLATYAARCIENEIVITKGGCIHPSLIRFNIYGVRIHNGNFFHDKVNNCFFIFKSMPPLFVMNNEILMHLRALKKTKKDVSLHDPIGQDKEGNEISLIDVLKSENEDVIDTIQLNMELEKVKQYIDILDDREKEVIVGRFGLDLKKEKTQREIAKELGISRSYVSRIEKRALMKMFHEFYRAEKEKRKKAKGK
UniProt P06222: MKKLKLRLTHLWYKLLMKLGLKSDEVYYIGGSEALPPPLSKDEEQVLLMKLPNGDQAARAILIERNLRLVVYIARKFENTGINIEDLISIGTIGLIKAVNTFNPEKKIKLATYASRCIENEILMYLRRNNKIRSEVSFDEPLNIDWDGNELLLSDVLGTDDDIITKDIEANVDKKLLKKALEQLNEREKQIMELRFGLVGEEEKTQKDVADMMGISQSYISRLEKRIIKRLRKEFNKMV

No constants are given. Whether binding was seen depends on the method and setting. For part of these data: Binding can be weak; no strength is given. Tags and fused reporters may be left off the sequences shown.

In test [1] the target is GAL4 DNA binding domain-σ^(K E93N) fusion (B. subtilis) (UniProt P12254). The experiment in a line: two-hybrid; GAL4-based yeast two-hybrid; CsfB fused to the activation domain, sigma factors or fragments to the DNA binding domain; lacZ reporter, colony lift assay and β-galactosidase assay in liquid medium.
Test [2] addresses GAL4 DNA binding domain-σ^K fusion (B. subtilis) (UniProt P12254). Described as above.
Test [3] deals with GST-σ^(E N100E) (B. subtilis) (UniProt P06222). The experiment in a line: pull-down; GST or GST-σ^E fusions on glutathione beads incubated with CsfB-Strep II (100 nM); after washing, eluted proteins immunoblotted with anti-Strep II tag antibody; both purified. Background: In western blotting, separated proteins are transferred to a membrane and probed.

B1: GAL4 activation domain-CsfB fusion (protein, UniProt P37534 1-64)
chain: MDETVKLNHTCVICDQEKNRGIHLYTKFICLDCERKVISTSTSDPDYAFYVKKLKSIHTPPLYS
Consider B1, for which the binding entry in test [1] is “binds”; in test [2], “no binding”.

B2: CsfB-StrepII-tagged protein (protein, UniProt P37534 1-64)
chain: MDETVKLNHTCVICDQEKNRGIHLYTKFICLDCERKVISTSTSDPDYAFYVKKLKSIHTPPLYS
With B2, the binding entry in test [3] is on record as “no binding (tested: 100 nM)”.
